Article doi:10.1101/2020.12.11.420943
These are yes or no findings as the source states them, for the method shown. Some results given as binding are weak or reduced against the parent protein; the word gives no strength.

Protein sequences, listed by entry. Tags and fused reporters are not part of them. Residues count along the entry.
UniProt Q00517, residues 44-237: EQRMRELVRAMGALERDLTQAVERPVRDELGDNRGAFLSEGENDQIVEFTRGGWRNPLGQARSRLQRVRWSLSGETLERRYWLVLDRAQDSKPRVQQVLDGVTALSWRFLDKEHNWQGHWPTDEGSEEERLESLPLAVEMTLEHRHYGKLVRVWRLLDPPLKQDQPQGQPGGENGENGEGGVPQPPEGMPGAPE
UniProt Q00516, residues 38-129: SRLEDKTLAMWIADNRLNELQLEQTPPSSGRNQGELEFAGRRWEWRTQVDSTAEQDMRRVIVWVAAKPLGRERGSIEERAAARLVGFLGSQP

Molecular target: XcpJp, soluble periplasmic domain of the minor pseudopilin XcpJ (Pseudomonas aeruginosa) (UniProt Q00517)
Test: cross-linking

## XcpIp, soluble periplasmic domain of the minor pseudopilin XcpI (from UniProt Q00516 38-129) (domain or fragment)
  binding: binds
